The record followed here is PubChem BioAssay AID2685 (National Center for Advancing Translational Sciences (NCATS), 2010).

This assay is described as follows: qHTS Assay for Lipid Storage Modulators in Drosophila S3 Cells.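 As to cell number change: cells counted by Cell Tracker Red CMTPX staining in the red channel.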 The settings on record: BODIPY lipid droplet fluorescence, 18-24 h; for cell number change: measured here: cell count max response, cells fed with added oleic acid. The method, boiled down:
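Drosophila S3 cells loaded with oleic acid (400 uM, as added) and compounds at several concentrations; lipid droplets imaged by 488-nm laser-scanning cytometry, 500–530 nm intensity and object ratio to cell channel. Percent activity normalized to 20 uM Triacsin C.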

The mark [1] stands for this setting: measured here: lipid fluorescence (Fed channel) AC50, cells fed with added oleic acid.
Where [2] appears, read: measured here: cell number channel AC50, cells fed with added oleic acid.

By AC50 is commonly meant the midpoint of the concentration-response curve, whichever way the signal moves. Lower therefore signals greater potency.

Some of the results follow. These are further read-outs of the screen, such as a control signal, another cell line or another target. No call is given for them. The list favours compounds with an active or inconclusive main result. The note in brackets gives the kind of curve behind each potency; many fits are weak.

With `O=C(CC1=NCCNC(c2ccccc2)C1)c1ccccc1O` (configuration not stated), the cell number change is -28.5%. Besides, the AC50 under setting [1] was 32.6 µM [falling, single point].
For `CC(=O)N1CC(C)Oc2ccc(S(=O)(=O)NC(CC(=O)O)c3ccc(C)cc3C)cc21` (configuration not stated), the cell number change was -2.09%. Also, the AC50 under setting [1] is 29.1 µM [rising, single point].
`CC(C)CCn1c(O)c(N=NC(=O)Cn2ccc(C(F)(F)F)n2)c2ccccc21`: the cell number change was -1.97%. The AC50 under setting [1] is 1.84 µM [rising, full curve, poor fit].
Regarding `CCCCCc1cc(=O)oc2c(C(CCN3CCCC(C)C3)c3cc(OC)c(OC)c(OC)c3)c(OC)cc(OC)c12` (configuration not stated), the cell number change was -72.2%. The AC50 under setting [2] was 29.1 µM [falling, single point]. In addition, the AC50 under setting [1] was 29.1 µM [falling, partial curve].
`Cc1cc([N+](=O)[O-])ccc1NC(=O)c1sc2ncn(CC(=O)N3CCOCC3)c(=O)c2c1C`: the cell number change stood at 12.5%. Moreover, the AC50 under setting [2] is 0.326 µM [rising, full curve]. The half-maximal activity concentration (AC50) under setting [1] was 0.461 µM [rising, full curve].
On to `CC1CCCCC1NC(=O)COc1ncnc2sccc12` (configuration not stated), for which the cell number change is -18.3%. Further, the half-maximal activity concentration (AC50) under setting [1] was 1.84 µM [falling, partial curve, poor fit].
Take `CC(C)[C@H](NC(=O)c1ccc(F)cc1)C(=O)N(C)Cc1cccs1`: the cell number change amounted to 0.55%.
Regarding `O=C(c1ccccc1)c1cccn1CC(=O)N1CCN(c2ccccc2)CC1`, the cell number change amounted to 29.1%. Also, the concentration at half-maximal activity (AC50) under setting [1] was 29.1 µM [rising, single point].
`Cc1nc2ccc(NC(=O)c3ccc(N4C(=O)CCC4=O)cc3)cc2s1`: the cell number change is -66%. Further, under setting [2], the AC50 is 3.66 µM [falling, full curve, poor fit]. Also, the AC50 under setting [1] was 6.51 µM [falling, partial curve, poor fit].
On to `CC(C)n1nnnc1SCC(=O)Nc1ccccc1N1CCOCC1`, for which the AC50 is, setting by setting: under setting [2], 5.17 µM [rising, single point]; under setting [1], 10.3 µM [rising, partial curve].
As to `CCN(CC(=O)Nc1cc(Cl)ccc1C)C(=O)c1ccc(=O)n(Cc2ccccc2)n1`, the cell number change is -43.1%.
In the case of `Cc1ccc(C)c(NC(=S)NNC(=O)c2csc(C(C)C)c2)c1`, the cell number change was -2.14%. Moreover, the AC50 under setting [1] is 4.61 µM [rising, single point].
Regarding `COc1ccc(CCNC(=O)CSc2ccc3ccccc3c2)cc1OC`, the cell number change was -56.2%. Further, the AC50 under setting [2] was 10.3 µM [falling, partial curve]. Under setting [1], the AC50 is 10.3 µM [falling, partial curve].
For `CC(=O)C(CC(=O)N1CCCc2ccccc21)C(=O)Nc1ccc(F)cc1` (configuration not stated), the cell number change is -10.2%. Also, the AC50 under setting [2] is 0.00651 µM [falling, full curve, poor fit]. Further, the concentration at half-maximal activity (AC50) under setting [1] is 0.461 µM [falling, full curve].
On to `Cc1ccc(S(=O)(=O)c2c(N)n(C)c3nc4ccccc4nc23)cc1`, for which the cell number change was -2.86%. Also, the AC50 under setting [1] was 2.31 µM [rising, partial curve].
With `Cc1nnc(NC(=O)C(C)Sc2nnc(CNC(=O)c3ccccc3F)n2C)s1` (configuration not stated), the cell number change is -2.01%.
As to `CC1CCCC(C)N1C(=O)CSc1nc2ncnc(N)c2[nH]1` (configuration not stated), the cell number change came to 39%. Besides, under setting [2], the AC50 was 1.3 µM [rising, partial curve, poor fit]. For the same molecule, the AC50 under setting [1] was 5.17 µM [rising, partial curve].
Regarding `CCC(CC)C(=O)Nc1c(C(=O)N2CCN(c3ccccc3)CC2)oc2ccccc12`, the cell number change is 79.9%. For the same molecule, the half-maximal activity concentration (AC50) under setting [2] is 13 µM [rising, partial curve]. Besides, the AC50 under setting [1] was 29.1 µM [rising, single point].
`COc1ccc(C2C(C(C)=O)=C(C)N=c3s/c(=C\c4cc(C)n(C)c4C)c(=O)n32)c(OC)c1` (configuration not stated): the cell number change is -99.9%. In addition, the AC50 under setting [2] is 2.91 µM [falling, full curve]. Besides, under setting [1], the AC50 was 2.31 µM [falling, full curve].
In the case of `CC1Cc2ccccc2N1Cc1ccc([N+](=O)[O-])cc1` (configuration not stated), the cell number change worked out at 22.9%. The AC50 under setting [1] is 0.13 µM [falling, single point].
Consider `CCc1cccc(NC(=O)C2CCCN2S(=O)(=O)c2ccc3c(c2)CC(C)N3C(C)=O)c1` (configuration not stated), for which the cell number change was -0.576%. Further, the AC50 under setting [1] was 1.64 µM [rising, partial curve, poor fit].
For the molecule `O=C(NCCc1ccc(F)cc1)c1ccc2nccnc2c1`, the cell number change came to 1.94%. The AC50 under setting [1] was 0.731 µM [falling, single point].
For the molecule `Cc1ccccc1NC(=O)c1ccc(NC(=O)c2ccco2)cc1`, the AC50 under setting [2] is 2.31 µM [rising, partial curve].
Take `O=C(CNC(=O)c1nc[nH]c1C(=O)N1CCc2ccccc2C1)OCc1ccccc1`: the cell number change is 26.3%. Besides, the concentration at half-maximal activity (AC50) under setting [1] was 0.116 µM [rising, full curve, poor fit].
As to `N#CC1=C(N)Oc2n[nH]c(-c3cccs3)c2C1C1CCCCC1` (configuration not stated), the cell number change is -88%. Under setting [1], the AC50 is 29.1 µM [falling, single point].
In the case of `COc1cccc(NC(=O)CSc2nnc(-c3ccoc3C)n2C)c1`, the cell number change was -2.38%.
With `C=CCn1c(=O)[nH]c2cc(C(=O)N3CCN(c4ccc(C(C)=O)cc4)CC3)ccc2c1=O`, the cell number change worked out at 7.73%. The AC50 under setting [2] was 3.66 µM [rising, partial curve].
As for `Cc1ccc(SC(C)c2nc(-c3ccncc3)no2)cc1` (configuration not stated), the cell number change was 51.5%. Also, the AC50 under setting [2] is 8.2 µM [rising, partial curve]. The AC50 under setting [1] was 6.51 µM [rising, single point].
For the molecule `COc1ccc(Br)cc1S(=O)(=O)NCc1ccccn1`, the cell number change was -0.0652%.
Take `O=[N+]([O-])CC(c1ccc(F)cc1)c1c[nH]c2ccccc12` (configuration not stated): the cell number change is -19.7%.
Take `Cc1ccc(O)c(-c2cc(-c3ccccc3[N+](=O)[O-])[nH]n2)c1`: the cell number change is -29%. Also, the AC50 under setting [1] was 23.1 µM [falling, single point].
As for `CC(Cc1ccccc1)C(=O)Nc1ccc(Br)cc1` (configuration not stated), the cell number change is -30.4%. Moreover, the AC50 under setting [2] was 18.4 µM [falling, single point]. Further, the AC50 under setting [1] was 29.1 µM [falling, single point].
With `COC(=O)c1cc(S(=O)(=O)NCCc2ccc(C)cc2)c[nH]1`, the cell number change was 33.8%. For the same molecule, the AC50 under setting [2] is 25.9 µM [rising, partial curve].
In the case of `O=c1c2ccc(Cl)cc2nc2n1CC/C2=C\c1cccc(O)c1`, the cell number change stood at 61%. In addition, under setting [2], the concentration at half-maximal activity (AC50) was 29.1 µM [rising, single point]. The AC50 under setting [1] was 5.8 µM [rising, full curve].
As to `Cc1nc2nc[nH]n2c(=O)c1NS(C)(=O)=O`, the cell number change is -14.4%. Besides, the AC50 under setting [1] is 3.26 µM [falling, partial curve, poor fit].
With `O=C(Nc1ccc(F)cc1)c1ccccc1NS(=O)(=O)N1CCCC1`, the cell number change was -11.1%. Moreover, under setting [1], the AC50 was 0.13 µM [rising, full curve, poor fit].
Regarding `COc1ccc(-c2cc(C(=O)N3CC(C)CC(C)C3)c3ccccc3n2)cc1` (configuration not stated), the cell number change was -25%. In addition, the AC50 under setting [2] is 0.116 µM [falling, full curve, poor fit].
On to `Cn1c(=O)c2c(nc(CN3CCN(C(=O)c4ccco4)CC3)n2CCc2ccccc2)n(C)c1=O`, for which the cell number change was 19.1%. Further, under setting [2], the AC50 was 0.517 µM [rising, full curve, poor fit].
On to `C=CCc1cccc(/C=N/c2nc3ccccc3n2CC)c1O`, for which the cell number change was found to be 22.5%. In addition, the AC50 under setting [1] was 32.6 µM [rising, single point].
For `Cc1ccc2c(c1)N(C(=O)CCC(=O)N1CCN(c3ccccn3)CC1)CC(C)O2` (configuration not stated), the cell number change came to 16.7%. Besides, under setting [1], the AC50 was 18.4 µM [falling, single point].
Consider `CCOc1ncccc1C(=O)Nc1nnc(C)s1`, for which the cell number change came out at 15.6%.
Take `COc1ccc(C(=O)NCC2(c3ccc(OC)c(OC)c3)CCCC2)c(OC)c1`: the cell number change came out at 3.85%. Besides, the AC50 under setting [1] was 0.58 µM [falling, single point].
Take `O=C(NC(=S)Nc1ccccc1N1CCOCC1)c1cccc([N+](=O)[O-])c1`: the cell number change is -41.8%. Moreover, under setting [2], the AC50 is 29.1 µM [falling, single point]. Further, the AC50 under setting [1] was 9.2 µM [falling, partial curve].
On to `CCn1cc(C2=NC(C)(C)CO2)c2ccccc21`, for which the cell number change was found to be 24.9%. Moreover, under setting [1], the AC50 is 14.6 µM [falling, partial curve].
Regarding `Cn1cccc1C(=O)NCCc1ccc(Cl)cc1`, the cell number change amounted to 21.1%. In addition, under setting [1], the AC50 is 29.1 µM [rising, single point].
On to `O=C(c1cc(-c2ccccc2)on1)N1CCc2ccccc2C1`, for which the cell number change amounted to 15.8%. Moreover, the AC50 under setting [1] is 7.31 µM [rising, single point].
For the molecule `COc1ccc(OCC(=O)Nc2ccc(Cl)cc2)cc1`, the cell number change turned out to be 14%.
For `CCOC(=O)C(NC(=O)NCc1ccc(F)cc1)(OCC)C(F)(F)F` (configuration not stated), the cell number change is 74.4%. The half-maximal activity concentration (AC50) under setting [1] was 20.6 µM [rising, partial curve].
Take `c1ccc(Cn2c[n+](Cc3ccccc3)c3ccccc32)cc1`: the cell number change is -1.13%. Moreover, the AC50 under setting [1] is 29.1 µM [falling, single point].
In the case of `CC(=O)Nc1ccc(S(=O)(=O)NCC(=O)OCC(=O)c2cc(C)n(-c3ccc4c(c3)OCO4)c2C)cc1`, the AC50 under setting [1] is 18.4 µM [rising, single point].
Consider `Cc1ccc(-c2csc3ncnc(N4CCN(Cc5ccccc5)CC4)c23)cc1`, for which the cell number change is -2.1%. The AC50 under setting [1] was 32.6 µM [rising, single point].
On to `O=S(=O)(c1c(F)cccc1F)N1CCN(C(=S)NCc2ccc3c(c2)OCO3)CC1`, for which the AC50 under setting [2] was 0.731 µM [rising, single point].
As to `Cc1c(C)c2ccc(OCC(=O)Nc3nccs3)cc2oc1=O`, the cell number change was -8.58%. Further, under setting [1], the AC50 was 9.2 µM [falling, partial curve].
Take `O=C(CN1C(=O)COc2ccccc21)NCCC1=CCCCC1`: the AC50 under setting [1] was 2.31 µM [rising, single point].
For the molecule `Nc1ccc2c(c1)COC2=O`, the cell number change was -4.55%. Moreover, the AC50 under setting [1] was 29.1 µM [falling, partial curve, poor fit].
`Cc1ccc(-c2nc(NC(=O)CSc3ncn[nH]3)ns2)cc1`: the cell number change stood at 13.2%. Under setting [1], the AC50 was 0.259 µM [falling, full curve, poor fit].
Consider `Cc1ccc(NC(=O)COc2ncnc3c(Cl)cc(Cl)cc23)cc1[N+](=O)[O-]`, for which the cell number change is -12.8%. Under setting [1], the AC50 is 0.13 µM [falling, full curve, poor fit].
Regarding `COc1ccccc1N1CCN(C(=O)C2=CC=CN3CCS(=O)(=O)N=C23)CC1`, the cell number change was -6.49%. Further, the AC50 under setting [2] was 0.731 µM [falling, single point]. Also, the AC50 under setting [1] is 23.1 µM [rising, partial curve].
